Measurements reported in patent publication US20230303699A1 (EXELIXIS, published 2023).
Changes are numbered by the printed parent chain. Results are given in words; binding and its absence hold for the method and conditions named. Some binding calls cover weakened binding; strength is not graded here. Each block holds one binder with its values, some of them ahead of it.

Chains of the proteins cited; added tags and fusions are not shown. Lines headed by an entry give the natural chain unless they say otherwise; changes in a name come on top.
UniProt Q9NZQ7: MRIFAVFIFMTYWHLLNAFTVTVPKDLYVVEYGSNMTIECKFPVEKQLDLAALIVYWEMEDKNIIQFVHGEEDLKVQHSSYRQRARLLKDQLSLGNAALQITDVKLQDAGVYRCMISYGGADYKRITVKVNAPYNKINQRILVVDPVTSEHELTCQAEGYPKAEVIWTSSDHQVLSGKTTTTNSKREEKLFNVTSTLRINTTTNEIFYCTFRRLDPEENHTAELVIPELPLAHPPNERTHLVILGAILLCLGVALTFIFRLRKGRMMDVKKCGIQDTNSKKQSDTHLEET

Assays:
[1] = biological target: biotinylated human PD-L1 (extracellular domain) (human) (UniProt Q9NZQ7); assay: Octet BLI, bivalent
[2] = biological target: human PD-L1-His tag (extracellular domain) (human) (UniProt Q9NZQ7); assay: Octet BLI, monovalent
[3] = biological target: PD-L1 on PD-L1 overexpressing CHO-K1 cells (Homo sapiens (Human)) (UniProt Q9NZQ7); assay: flow cytometry on PD-L1 CHO-K1 cells
[4] = biological target: biotinylated human PD-L1 (extracellular domain) (human) (UniProt Q9NZQ7); assay: Octet BLI, bivalent; biotinylated PD-L1 on streptavidin sensor
[5] = biological target: human PD-L1-His tag (extracellular domain) (human) (UniProt Q9NZQ7); assay: bio-layer interferometry (Octet); the text calls FIGS. 1A-1C monovalent binding (IgG on an Fc capture sensor, soluble PD-L1-His); concentration not given; format doubtful
[6] = biological target: PD-L1 on PD-L1 overexpressing CHO-K1 cells (Homo sapiens (Human)) (UniProt Q9NZQ7); assay: flow cytometry on PD-L1 overexpressing CHO-K1 cells, AF488 goat anti human IgG Fab secondary, MFI

binding [1]: binds
binding [2]: binds
binding [3]: binds
binding [4]: binds
binding [5]: binds
B1: antibody designated P22 (antibody, human IgG1, kappa, V domains shown)
VH: EVQLVESGGGLVQPGGSLRLSCAASGFTFSSYYIHWVRQAPGKGLEWVAWITSHGYSTKYADSVKGRFTISADTSKNTAYLQMNSLRAEDTAVYYCARDSVIYGLDYWGQGTLVTAST
VL: DIQMTQSPSSLSASVGDRVTITCRASQSVSSAVAWYQQKPGKAPKLLIYSASSLYSGVPSRFSGSRSGTDFTLTISSLQPEDFATYYCQQYYTSPYTFGQGTKVEIKR
notes: Tested as full length IgG

binding [1]: binds
binding [2]: binds
binding [3]: binds
binding [4]: binds
binding [6]: binds
B2: antibody designated P24 (antibody, human IgG1, kappa, V domains shown)
VH: EVQLVESGGGLVQPGGSLRLSCAASGFTFDQYYIHWVRQAPGKGLEWVAEIYPAGSYTYYADSVKGRFTISADTSKNTAYLQMNSLRAEDTAVYYCARGPYSVRYALDYWGQGTLVTAST
VL: B1 VL with Y91V, Y92S, T93Y
notes: Tested as full length IgG

binding [1]: binds
binding [2]: binds
binding [3]: binds
binding [4]: binds
B3: antibody designated P31.2 (antibody, human IgG1, kappa, V domains shown)
VH: EVQLVESGGGLVQPGGSLRLSCAASGFTFSSYYIHWVRQAPGKGLEWVATISSGGGFTYYADSVKGRFTISADTSKNTAYLQMNSLRAEDTAVYYCARGYTLTPVLDYWGQGTLVTAST
VL: B1 VL with Y91F, Y92G, T93A, S94E, Y96I
notes: Tested as full length IgG
